The results in this text go back to patent US20150141489A1.

Amino acid sequences for entries named in this document (tags omitted). A change or cut given only in a name is not applied to a line headed by its entry. Chains listed by the source or under a name are the forms on record and can include a tag or linker.
UniProt Q16539: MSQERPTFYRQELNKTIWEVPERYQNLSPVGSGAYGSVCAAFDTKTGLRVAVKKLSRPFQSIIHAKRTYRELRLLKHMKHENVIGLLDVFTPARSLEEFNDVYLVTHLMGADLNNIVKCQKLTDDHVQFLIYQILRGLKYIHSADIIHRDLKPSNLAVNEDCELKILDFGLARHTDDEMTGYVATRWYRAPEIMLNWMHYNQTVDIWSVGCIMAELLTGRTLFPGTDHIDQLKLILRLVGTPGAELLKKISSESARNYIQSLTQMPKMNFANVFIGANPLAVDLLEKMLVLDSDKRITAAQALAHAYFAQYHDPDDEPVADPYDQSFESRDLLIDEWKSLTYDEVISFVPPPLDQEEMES
Mnk1 (Q9BUB5, form named): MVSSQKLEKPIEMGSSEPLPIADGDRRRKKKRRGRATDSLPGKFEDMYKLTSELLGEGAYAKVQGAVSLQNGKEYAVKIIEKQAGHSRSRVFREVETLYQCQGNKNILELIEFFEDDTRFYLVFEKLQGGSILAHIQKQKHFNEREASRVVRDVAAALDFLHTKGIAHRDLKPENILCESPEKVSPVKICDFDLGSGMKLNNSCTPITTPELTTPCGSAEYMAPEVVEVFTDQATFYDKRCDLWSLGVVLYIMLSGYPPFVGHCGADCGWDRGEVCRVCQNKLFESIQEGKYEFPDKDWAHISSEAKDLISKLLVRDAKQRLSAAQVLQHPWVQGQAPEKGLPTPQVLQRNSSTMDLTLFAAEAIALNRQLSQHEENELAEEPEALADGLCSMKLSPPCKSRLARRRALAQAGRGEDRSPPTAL

The target in this assay is HA-p38α-MAPK (UniProt Q16539). In words: co-immunoprecipitation with HA-p38α, HEK293 cells.

Results are given in words; binding and its absence hold for the method and conditions named. In cells and extracts the contact can be indirect. Some entries that bind do so weakly or less than the wild type.

In the case of “Mnk1 (from UniProt Q9BUB5 1-424) (enzyme)”, the binding entry is listed as “binds”.
